Reference: PMC6223059
These are yes or no findings as the source states them, for the method shown. In cells and extracts the contact can be indirect. Some entries that bind do so weakly or less than the wild type. For part of these data: Where a sequence is shown, tags or fusion partners need not be part of it. One block for each substance: values may come before it.

Amino acid sequences for entries named in this document (tags omitted).
UniProt Q921F2: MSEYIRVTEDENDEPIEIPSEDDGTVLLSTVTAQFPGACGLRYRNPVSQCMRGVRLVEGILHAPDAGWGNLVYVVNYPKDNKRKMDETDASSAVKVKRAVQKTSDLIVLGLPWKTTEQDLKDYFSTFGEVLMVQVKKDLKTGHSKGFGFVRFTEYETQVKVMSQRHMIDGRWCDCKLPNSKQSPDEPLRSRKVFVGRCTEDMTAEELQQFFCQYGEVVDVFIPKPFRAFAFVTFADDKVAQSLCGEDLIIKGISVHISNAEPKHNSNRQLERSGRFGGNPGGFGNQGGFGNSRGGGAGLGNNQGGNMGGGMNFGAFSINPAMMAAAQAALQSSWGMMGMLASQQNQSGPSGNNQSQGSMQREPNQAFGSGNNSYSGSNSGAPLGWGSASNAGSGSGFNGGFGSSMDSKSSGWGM
UniProt Q13148: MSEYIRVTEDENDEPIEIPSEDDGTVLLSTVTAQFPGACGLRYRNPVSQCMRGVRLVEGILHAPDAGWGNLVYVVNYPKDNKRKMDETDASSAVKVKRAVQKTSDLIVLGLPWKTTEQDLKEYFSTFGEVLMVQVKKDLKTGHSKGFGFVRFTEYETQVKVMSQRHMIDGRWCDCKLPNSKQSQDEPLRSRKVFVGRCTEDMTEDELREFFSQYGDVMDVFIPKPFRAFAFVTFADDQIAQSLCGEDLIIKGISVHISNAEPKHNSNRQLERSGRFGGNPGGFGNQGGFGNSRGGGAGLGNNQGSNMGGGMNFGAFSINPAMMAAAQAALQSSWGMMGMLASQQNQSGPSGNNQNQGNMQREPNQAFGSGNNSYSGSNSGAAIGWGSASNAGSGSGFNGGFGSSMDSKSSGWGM

Experiments:
[1] = molecular target: T1, GFP-mZnf179 (GFP-tagged mouse Znf179) (mouse) (UniProt Q96DY5); test: co-IP; lysates of 293 T cells transfected with Flag-mZnf179 (48 h) or N2a cells stably expressing GFP-mZnf179, treated with 10 uM MG132 for 4 h; lysis buffer 50 mM Tris-HCl pH 7.8, 150 mM NaCl, 0.1% Nonidet P-40, 0.5% Triton X-100; IP with anti-TDP-43 or anti-Znf179 antibodies (Catch and Release IP Kit), 2 h at 4 °C; blot with anti-TDP-43 and anti-Znf179
T1 sequence: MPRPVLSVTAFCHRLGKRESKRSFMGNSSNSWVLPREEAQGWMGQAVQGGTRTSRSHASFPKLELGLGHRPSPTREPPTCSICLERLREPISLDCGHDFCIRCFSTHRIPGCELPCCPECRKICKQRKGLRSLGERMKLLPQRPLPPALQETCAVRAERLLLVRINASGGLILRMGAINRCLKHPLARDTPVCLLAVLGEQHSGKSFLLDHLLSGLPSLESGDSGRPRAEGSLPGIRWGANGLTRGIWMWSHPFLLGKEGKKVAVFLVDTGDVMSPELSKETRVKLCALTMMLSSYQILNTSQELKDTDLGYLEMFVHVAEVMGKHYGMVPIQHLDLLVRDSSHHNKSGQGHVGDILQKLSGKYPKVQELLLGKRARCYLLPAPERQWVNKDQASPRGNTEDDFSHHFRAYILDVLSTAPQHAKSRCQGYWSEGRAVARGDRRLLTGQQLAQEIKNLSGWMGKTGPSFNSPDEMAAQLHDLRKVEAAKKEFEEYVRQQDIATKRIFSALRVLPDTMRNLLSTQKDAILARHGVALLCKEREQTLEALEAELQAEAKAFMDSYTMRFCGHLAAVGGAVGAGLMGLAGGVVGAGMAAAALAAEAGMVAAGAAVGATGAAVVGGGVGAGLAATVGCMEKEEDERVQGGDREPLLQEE

[2] = molecular target: T2, endogenous Znf179 (mouse brain) (mouse (endogenous in mouse brain)) (UniProt Q96DY5); test: co-IP; total brain lysates of wild-type or Znf179-knockout mice; IP with anti-TDP-43 or anti-Znf179 antibodies (Catch and Release IP Kit), 2 h at 4 °C; blot with anti-Znf179 and anti-TDP-43
T2 sequence: T1 sequence

[3] = molecular target: T3, Flag-mZnf179 (Flag-tagged mouse Znf179) (mouse) (UniProt Q96DY5); test: co-IP; lysates of 293 T cells transfected with Flag-mZnf179 (48 h) or N2a cells stably expressing GFP-mZnf179, treated with 10 uM MG132 for 4 h; lysis buffer 50 mM Tris-HCl pH 7.8, 150 mM NaCl, 0.1% Nonidet P-40, 0.5% Triton X-100; IP with anti-TDP-43 or anti-Znf179 antibodies (Catch and Release IP Kit), 2 h at 4 °C; blot with anti-TDP-43 and anti-Znf179
T3 sequence: T1 sequence

binding [1]: binds
Substance: endogenous TDP-43 (N2a cells) (from UniProt Q921F2 1-414)

binding [2]: binds
Substance: endogenous TDP-43 (mouse brain) (from UniProt Q921F2 1-414)

binding [3]: binds
Substance: endogenous TDP-43 (293 T cells) (from UniProt Q13148 1-414)
